Mtb cholesterol medium: 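Phenotypic screen: M. tuberculosis growth, cholesterol and DPPC medium, 4 days; the read-out is not stated. Compounds at 50 µM. Direction is inferred from retests: higher values go with more growth inhibition. Of about 69,000 compounds tested this way, about 370 (0.54%) reached 50% or more in at least one test.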
Mtb glucose medium: 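Phenotypic screen: M. tuberculosis growth, glucose 7H9 medium, 3 days; the read-out is not stated. Concentration: 50 µM. Direction is inferred from retests: higher values go with more growth inhibition. About 69,000 compounds were tested under these conditions; 1.1% (about 760) showed 50% or more at least once.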

The filed quantity is “Percent Effect” (%). The record does not define 0% and 100%; most values in the screen are far below 50% and negative numbers occur (in some assays of this library far below -100). This is an unselected part of the compounds tested. Two or more numbers in one place are separate tests of the same structure; such repeats can differ widely.

| # | structure | Mtb cholesterol medium | Mtb glucose medium |
|---|---|---|---|
| 1 | `COc1ccc(-c2nnc(CN3CCNC(=O)C3)o2)cc1` | -41.16 | -34.02 |
| 2 | `O=C(C1CCC1)N1CCCn2nc(CNc3ncccn3)cc2C1` | 6.63 | 21.51 |
| 3 | `COC1COC2(CCN(S(=O)(=O)c3ccc(F)cc3)CC2)C1` (stereo unspecified) | -23.94 | 1.939 |
| 4 | `O=C(NCc1ccc(Cl)s1)c1cc(CN2CCCC(O)C2)on1` (stereo unspecified) | 1.19 | 27.22 |
| 5 | `O=c1c(Cc2ccccc2)c(O)ccn1Cc1cccs1` | -27.83 | 47.94 and -38.39 |
| 6 | `O=C(Cc1ccccc1)N1CCOC(c2nc(-c3ncccn3)no2)C1` (stereo unspecified) | -24.8 | -24.62 |
| 7 | `COCCN1CCCC2(CCN(c3ncnc(C)c3C)C2)C1=O` (stereo unspecified) | -24.69 | -6.715 and -18.2 |
| 8 | `CC(c1nc(C(C)(C)C)no1)N1CCN(Cc2ccc(C#N)cc2)CC1` (stereo unspecified) | -19.52 | 2.916 and -6.099 |
| 9 | `COCc1nc(C(=O)NS(=O)(=O)c2c(C)c(C)cc(C)c2C)cs1` | -4.56 | 20.42 |
| 10 | `COc1ccc([C@@H]2CN(Cc3ccncc3)C[C@H]2c2cc[nH]n2)cc1.O=C(O)CC(O)(CC(=O)O)C(=O)O` | 0.6501 and 13.03 | 10.69 |
| 11 | `O=C(NCCNc1ncccn1)N1CCc2ccccc2C1` | -15.31 | -14.88 |
| 12 | `CC(=O)c1cccc(CN2CCCC23CCN(c2ccccn2)CC3)c1` | 5.196 | -10.12 |
| 13 | `O=C(CC1CCC2(CC1)CCN(Cc1ccncc1)CC2)N1CCCC1.O=C(O)C(F)(F)F` | -21.79 | -24.41 |
| 14 | `Cc1[nH]ncc1CCCNC(=O)Nc1ccc(C#N)cc1` | 19.43 | -14.46 |
| 15 | `COCCn1ccc2ccc(NC(=O)NCc3noc(C)n3)cc21` | -28.44 | -2.062 |
| 16 | `Cc1nc(C)c2c(n1)CCN(C(=O)CC1CC1)CC2` | -22.87 | 6.088 |
| 17 | `COCCN(CCOC)C(=O)c1sc(C)nc1C` | -0.6804 | 34.71 |
| 18 | `O=C(O)C(F)(F)F.O=C(c1ccncc1F)N1CCc2ncnc(C3CC3)c2CC1` | -6.819 | 20.38 |
| 19 | `Cc1ccc(-c2nc(CN3CCn4c(C)nnc4C3)co2)cc1` | 12.26 | 2.718 |
| 20 | `Cc1ccccc1C(C)N(C)Cc1nc2c(cnn2C)c(=O)[nH]1` (stereo unspecified) | 7.808 | -2.925 |
| 21 | `Cc1cc(=O)[nH]c(NCCNC(=O)C(c2ccc(F)cc2)N(C)C)n1` (stereo unspecified) | -30.96 | -85 |
| 22 | `CCNC(=O)c1cc2n(n1)CCCO2` | -12.05 | -20.64 |
| 23 | `Cc1cnn(C(C)C2CC2)c1NC(=O)c1ccc(Cn2cnnn2)cc1` (stereo unspecified) | 9.245 | 10.17 |
| 24 | `OC(CNCCn1cccn1)c1ccc(Br)cc1` (stereo unspecified) | 6.4 | 21.02 |
| 25 | `COCc1ccccc1C(=O)N1CCCC1Cn1nc(C)cc1C` (stereo unspecified) | -5.513 | -26.66 |
| 26 | `O=C(O)C(F)(F)F.O=C(O)C(F)(F)F.O=C(c1ccnnc1)N1CCN(Cc2cccnc2)c2ncccc2C1` | 5.045 | -9.133 |
| 27 | `Cc1cc(C)n(CC(C)CNC(=O)NCc2csc(C)n2)n1` (stereo unspecified) | -54.11 | -50.14 |
| 28 | `CCOCC1CN(Cc2ccc(OC)cc2)Cc2nn(C)cc21.O=C(O)C(F)(F)F` (stereo unspecified) | -14.77 | -6.226 |
| 29 | `c1ccc(-n2ccc(CN3CCCC3Cn3cncn3)n2)cc1` (stereo unspecified) | -12.88 | 12.02 |
| 30 | `c1ccc(COC2CCN(c3cncc(-n4cccn4)n3)CC2)cc1` | 29.03 and -3.214 | 1.695 |
| 31 | `Cc1cc(C)n(CCCN(C)C(=O)C2COc3ccccc3C2)n1` (stereo unspecified) | -17.93 | -9.458 and -28.12 |
| 32 | `Cc1cc2ccccc2n1CCC(=O)NCCCc1nnc(N)s1` | -14.45 | -36.35 |
| 33 | `Cc1ccc(C(=O)N2CCCC2c2nnc3n2CCCCC3)o1` (stereo unspecified) | -6.134 | -4.742 and 6.618 |
| 34 | `CCS(=O)(=O)c1ncc(CN(C)Cc2ccc(C)o2)n1CCOC` | 2.874 and -8.879 | 5.946 |
| 35 | `Cl.O=C1NCCCCC1NCc1csc(-c2ccc(F)cc2)n1` (stereo unspecified) | -12.41 | 6.199 |
| 36 | `Cc1nc(NC(=O)OC(C)(C)C)sc1C#N` | -18.24 | -9.952 |
| 37 | `CN(Cc1cccnc1)CC1CC12CCN(c1nncs1)CC2.O=C(O)C(F)(F)F.O=C(O)C(F)(F)F.O=C(O)C(F)(F)F` (stereo unspecified) | -3.857 | -2.369 and 9.472 |
| 38 | `CCOC(C)c1nc(CN2CCN(c3ncc(C)cn3)CC2)cs1` (stereo unspecified) | 6.425 and 33.45 | -8.787 |
| 39 | `COCC(=O)N1C[C@@H](O)[C@H](N2CCN(c3ccccc3)CC2)C1` | 19.11 and 28.82 | 8.643 |
| 40 | `COc1ccccc1CCN1CCCC(CN(C)Cc2ccc(C)o2)C1` (stereo unspecified) | 19.62 | 25.21 |

The values are deposited in ChEMBL (CHEMBL3988442, “University of Dundee, Small-Polar-MMV Screening Library” (2021)).